These results are taken from PMC3889402.

Common to all, as to conditions: remark: other sources report otherwise
Test [1] deals with T1, FLAG-USP13, Q92995.
T1 chain: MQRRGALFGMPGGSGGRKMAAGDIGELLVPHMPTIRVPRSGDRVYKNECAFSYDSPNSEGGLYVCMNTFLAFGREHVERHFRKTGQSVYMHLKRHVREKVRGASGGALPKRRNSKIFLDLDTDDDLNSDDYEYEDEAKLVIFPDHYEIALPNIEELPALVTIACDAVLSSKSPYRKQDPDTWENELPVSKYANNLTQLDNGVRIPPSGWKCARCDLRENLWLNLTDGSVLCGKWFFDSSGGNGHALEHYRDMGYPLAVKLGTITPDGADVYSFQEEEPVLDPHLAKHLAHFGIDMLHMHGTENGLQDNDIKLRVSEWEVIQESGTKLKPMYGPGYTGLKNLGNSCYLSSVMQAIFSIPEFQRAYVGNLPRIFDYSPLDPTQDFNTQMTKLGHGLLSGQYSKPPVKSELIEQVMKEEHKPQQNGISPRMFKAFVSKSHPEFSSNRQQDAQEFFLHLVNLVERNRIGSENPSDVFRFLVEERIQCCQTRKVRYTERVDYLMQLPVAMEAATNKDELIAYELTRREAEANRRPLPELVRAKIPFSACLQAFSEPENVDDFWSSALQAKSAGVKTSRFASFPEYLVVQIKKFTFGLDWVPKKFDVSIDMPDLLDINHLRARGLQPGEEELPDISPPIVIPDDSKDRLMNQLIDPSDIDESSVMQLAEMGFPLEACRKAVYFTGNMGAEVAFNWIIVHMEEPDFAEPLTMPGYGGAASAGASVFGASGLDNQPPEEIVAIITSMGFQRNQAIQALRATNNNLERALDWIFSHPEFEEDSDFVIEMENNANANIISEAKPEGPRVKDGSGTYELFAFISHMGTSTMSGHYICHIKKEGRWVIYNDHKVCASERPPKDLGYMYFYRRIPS
In words: co-IP; extracts of transfected cells (FLAG-tagged DUB or chimera, in part with gp78), immunoprecipitation with FLAG beads; NP40 lysis buffer; immunoblotting.

In test [2] the target is T2, GST-USP13, Q92995.
T2 chain: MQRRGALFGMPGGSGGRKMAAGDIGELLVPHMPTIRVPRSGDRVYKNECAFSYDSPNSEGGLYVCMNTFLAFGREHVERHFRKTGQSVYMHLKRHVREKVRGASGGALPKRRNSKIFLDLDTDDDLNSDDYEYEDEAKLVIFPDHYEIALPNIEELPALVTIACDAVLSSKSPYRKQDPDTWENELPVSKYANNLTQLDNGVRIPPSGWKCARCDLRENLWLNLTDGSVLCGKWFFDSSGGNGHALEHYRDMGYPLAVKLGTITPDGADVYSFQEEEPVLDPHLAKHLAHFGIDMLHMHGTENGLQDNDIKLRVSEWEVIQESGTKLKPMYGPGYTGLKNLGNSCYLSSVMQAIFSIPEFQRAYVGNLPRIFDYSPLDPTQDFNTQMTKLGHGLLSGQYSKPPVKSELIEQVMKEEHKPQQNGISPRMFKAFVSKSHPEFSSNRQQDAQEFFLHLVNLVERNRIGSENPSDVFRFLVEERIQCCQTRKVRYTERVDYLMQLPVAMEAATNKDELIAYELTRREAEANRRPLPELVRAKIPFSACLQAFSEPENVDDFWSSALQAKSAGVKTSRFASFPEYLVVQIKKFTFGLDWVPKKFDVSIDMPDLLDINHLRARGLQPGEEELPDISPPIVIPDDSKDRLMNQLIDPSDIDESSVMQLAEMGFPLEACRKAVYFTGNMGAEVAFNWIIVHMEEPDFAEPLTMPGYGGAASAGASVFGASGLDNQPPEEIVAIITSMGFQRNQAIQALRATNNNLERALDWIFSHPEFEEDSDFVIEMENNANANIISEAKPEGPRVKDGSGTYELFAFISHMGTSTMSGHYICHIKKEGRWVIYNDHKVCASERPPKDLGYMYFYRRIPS
Nature of the test: pull-down; glutathione beads with purified GST-tagged protein incubated with whole cell extracts (control, gp78-expressing, gp78 knock-down or knock-out cells; depletion of gp78 reduced the USP13-p97 interaction threefold to fourfold and did not affect USP13-Bag6); immunoblotting; only the target purified.

Test [3] addresses T3, endogenous USP13 (human (endogenous in HEK293)), Q92995.
T3 chain: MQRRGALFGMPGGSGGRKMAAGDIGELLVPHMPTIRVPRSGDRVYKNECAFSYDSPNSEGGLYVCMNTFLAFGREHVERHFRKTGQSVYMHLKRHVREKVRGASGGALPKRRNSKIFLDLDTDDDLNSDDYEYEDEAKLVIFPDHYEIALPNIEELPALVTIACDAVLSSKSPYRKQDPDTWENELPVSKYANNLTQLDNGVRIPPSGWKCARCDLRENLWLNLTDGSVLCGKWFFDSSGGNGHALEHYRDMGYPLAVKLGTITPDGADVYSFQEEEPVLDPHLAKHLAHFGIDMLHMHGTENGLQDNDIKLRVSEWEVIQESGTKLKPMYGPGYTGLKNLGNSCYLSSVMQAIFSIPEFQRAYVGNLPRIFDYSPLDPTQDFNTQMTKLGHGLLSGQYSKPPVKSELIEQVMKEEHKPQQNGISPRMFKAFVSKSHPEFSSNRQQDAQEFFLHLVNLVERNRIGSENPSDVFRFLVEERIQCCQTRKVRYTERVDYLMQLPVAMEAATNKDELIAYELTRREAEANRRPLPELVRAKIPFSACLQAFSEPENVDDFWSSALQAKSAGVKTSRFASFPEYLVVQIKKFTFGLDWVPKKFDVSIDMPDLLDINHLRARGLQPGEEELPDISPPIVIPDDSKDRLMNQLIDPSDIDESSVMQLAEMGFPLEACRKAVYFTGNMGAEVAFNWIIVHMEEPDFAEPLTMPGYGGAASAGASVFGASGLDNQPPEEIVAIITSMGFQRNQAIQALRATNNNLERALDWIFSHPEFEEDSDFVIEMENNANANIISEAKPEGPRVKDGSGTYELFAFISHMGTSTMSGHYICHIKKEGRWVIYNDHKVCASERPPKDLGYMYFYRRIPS
Nature of the test: co-IP; whole cell extract, immunoprecipitation with control or anti-USP13 antibodies; all proteins endogenous; immunoblotting.

Test [4] deals with T4, overexpressed gp78, Q9UKV5.
T4 chain: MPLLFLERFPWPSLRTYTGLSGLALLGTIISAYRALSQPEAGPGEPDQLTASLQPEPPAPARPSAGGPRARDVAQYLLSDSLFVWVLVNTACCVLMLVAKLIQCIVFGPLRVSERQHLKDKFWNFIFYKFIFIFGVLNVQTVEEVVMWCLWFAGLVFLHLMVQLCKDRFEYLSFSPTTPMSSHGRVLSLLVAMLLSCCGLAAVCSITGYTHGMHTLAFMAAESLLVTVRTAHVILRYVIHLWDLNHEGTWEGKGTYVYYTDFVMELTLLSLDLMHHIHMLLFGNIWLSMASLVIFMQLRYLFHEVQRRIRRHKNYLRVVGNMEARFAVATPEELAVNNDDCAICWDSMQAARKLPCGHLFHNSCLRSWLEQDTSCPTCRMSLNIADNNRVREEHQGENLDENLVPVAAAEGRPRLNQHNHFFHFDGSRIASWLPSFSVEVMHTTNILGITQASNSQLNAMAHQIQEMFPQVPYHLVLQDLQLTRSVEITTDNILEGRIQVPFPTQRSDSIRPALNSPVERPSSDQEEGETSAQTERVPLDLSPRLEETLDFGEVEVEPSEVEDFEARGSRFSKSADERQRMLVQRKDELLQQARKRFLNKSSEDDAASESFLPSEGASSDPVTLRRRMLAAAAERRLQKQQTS
Nature of the test: co-IP; sequential immunoprecipitation: extract of cells expressing FLAG-USP13 and untagged gp78, first FLAG beads, elution with FLAG peptide (0.2 mg/ml), then anti-gp78 or control antibody.

No constants are given. Whether binding was seen depends on the method and setting. Binding seen in cells or lysates may run through a third protein. Some results given as binding are weak or reduced against the parent protein; the word gives no strength. For part of these data: Sequences can lack the tags named with a protein.

B1: overexpressed gp78, Q9UKV5 1-643 (enzyme)
chain: MPLLFLERFPWPSLRTYTGLSGLALLGTIISAYRALSQPEAGPGEPDQLTASLQPEPPAPARPSAGGPRARDVAQYLLSDSLFVWVLVNTACCVLMLVAKLIQCIVFGPLRVSERQHLKDKFWNFIFYKFIFIFGVLNVQTVEEVVMWCLWFAGLVFLHLMVQLCKDRFEYLSFSPTTPMSSHGRVLSLLVAMLLSCCGLAAVCSITGYTHGMHTLAFMAAESLLVTVRTAHVILRYVIHLWDLNHEGTWEGKGTYVYYTDFVMELTLLSLDLMHHIHMLLFGNIWLSMASLVIFMQLRYLFHEVQRRIRRHKNYLRVVGNMEARFAVATPEELAVNNDDCAICWDSMQAARKLPCGHLFHNSCLRSWLEQDTSCPTCRMSLNIADNNRVREEHQGENLDENLVPVAAAEGRPRLNQHNHFFHFDGSRIASWLPSFSVEVMHTTNILGITQASNSQLNAMAHQIQEMFPQVPYHLVLQDLQLTRSVEITTDNILEGRIQVPFPTQRSDSIRPALNSPVERPSSDQEEGETSAQTERVPLDLSPRLEETLDFGEVEVEPSEVEDFEARGSRFSKSADERQRMLVQRKDELLQQARKRFLNKSSEDDAASESFLPSEGASSDPVTLRRRMLAAAAERRLQKQQTS
B1: the binding result in test [1] and in test [2] was “binds” throughout.

B2: endogenous gp78, Q9UKV5 1-643 (enzyme)
chain: MPLLFLERFPWPSLRTYTGLSGLALLGTIISAYRALSQPEAGPGEPDQLTASLQPEPPAPARPSAGGPRARDVAQYLLSDSLFVWVLVNTACCVLMLVAKLIQCIVFGPLRVSERQHLKDKFWNFIFYKFIFIFGVLNVQTVEEVVMWCLWFAGLVFLHLMVQLCKDRFEYLSFSPTTPMSSHGRVLSLLVAMLLSCCGLAAVCSITGYTHGMHTLAFMAAESLLVTVRTAHVILRYVIHLWDLNHEGTWEGKGTYVYYTDFVMELTLLSLDLMHHIHMLLFGNIWLSMASLVIFMQLRYLFHEVQRRIRRHKNYLRVVGNMEARFAVATPEELAVNNDDCAICWDSMQAARKLPCGHLFHNSCLRSWLEQDTSCPTCRMSLNIADNNRVREEHQGENLDENLVPVAAAEGRPRLNQHNHFFHFDGSRIASWLPSFSVEVMHTTNILGITQASNSQLNAMAHQIQEMFPQVPYHLVLQDLQLTRSVEITTDNILEGRIQVPFPTQRSDSIRPALNSPVERPSSDQEEGETSAQTERVPLDLSPRLEETLDFGEVEVEPSEVEDFEARGSRFSKSADERQRMLVQRKDELLQQARKRFLNKSSEDDAASESFLPSEGASSDPVTLRRRMLAAAAERRLQKQQTS
Regarding B2, the binding entry in test [1], in test [3] and in test [2] was “binds” each time.

B3: FLAG-USP13, Q92995 1-863 (enzyme)
chain: MQRRGALFGMPGGSGGRKMAAGDIGELLVPHMPTIRVPRSGDRVYKNECAFSYDSPNSEGGLYVCMNTFLAFGREHVERHFRKTGQSVYMHLKRHVREKVRGASGGALPKRRNSKIFLDLDTDDDLNSDDYEYEDEAKLVIFPDHYEIALPNIEELPALVTIACDAVLSSKSPYRKQDPDTWENELPVSKYANNLTQLDNGVRIPPSGWKCARCDLRENLWLNLTDGSVLCGKWFFDSSGGNGHALEHYRDMGYPLAVKLGTITPDGADVYSFQEEEPVLDPHLAKHLAHFGIDMLHMHGTENGLQDNDIKLRVSEWEVIQESGTKLKPMYGPGYTGLKNLGNSCYLSSVMQAIFSIPEFQRAYVGNLPRIFDYSPLDPTQDFNTQMTKLGHGLLSGQYSKPPVKSELIEQVMKEEHKPQQNGISPRMFKAFVSKSHPEFSSNRQQDAQEFFLHLVNLVERNRIGSENPSDVFRFLVEERIQCCQTRKVRYTERVDYLMQLPVAMEAATNKDELIAYELTRREAEANRRPLPELVRAKIPFSACLQAFSEPENVDDFWSSALQAKSAGVKTSRFASFPEYLVVQIKKFTFGLDWVPKKFDVSIDMPDLLDINHLRARGLQPGEEELPDISPPIVIPDDSKDRLMNQLIDPSDIDESSVMQLAEMGFPLEACRKAVYFTGNMGAEVAFNWIIVHMEEPDFAEPLTMPGYGGAASAGASVFGASGLDNQPPEEIVAIITSMGFQRNQAIQALRATNNNLERALDWIFSHPEFEEDSDFVIEMENNANANIISEAKPEGPRVKDGSGTYELFAFISHMGTSTMSGHYICHIKKEGRWVIYNDHKVCASERPPKDLGYMYFYRRIPS
B3: in test [4], the binding entry is “binds”.
